Results deposited as PubChem BioAssay AID1259254 (NCATS, 2017).
Aim: 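Finding genes that stop cells copying their DNA twice in one cycle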 (primary screen). Cell system: human HCT116 colorectal cancer cells. Reagents: single siRNA against human genes. Time to read-out: 3 days. Measured: 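Imaged Hoechst DNA stain sorts each cell into a cycle phase by DNA amount; per plate, G2 fraction set to 0% for non-targeting and 100% for GMNN siRNA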. Direction: G2 robust z-score: higher = more G2 cells, more excess DNA replication. Call rule: 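An siRNA counts as active if its G2 robust z-score lies at least 5 MADs above the screen median; here such calls match roughly 38% of GMNN control or more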.
This is one part, drawn at random, of about 59,000 reagents tested. About 1,550 of all reagents (2.6%) count as active. 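G2 share is only a proxy for re-replication; each gene was hit by three separate siRNAs, and active genes were retested.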 Unmarked entries are inactive. Reagents against one gene are numbered here. Further read-outs or replicates are left out here. Not stated in the record: the amount of reagent.

Against IFT25 (GeneID 51668) #1, the values are G2 robust z-score 0.253. IFT25 (GeneID 51668) #2 gave G2 robust z-score -0.699. With knock-down of IFT25 (GeneID 51668) #3, the record shows G2 robust z-score -0.94. With knock-down of BIRC2 (GeneID 329) #1, the screen gave G2 robust z-score -0.39. Depletion of BIRC2 (GeneID 329) #2 gave: G2 robust z-score 1.35. Knock-down of BIRC2 (GeneID 329) #3 came out at: G2 robust z-score 4.18.

LOC727775 (retired record) (GeneID 727775) #1 showed G2 robust z-score 2.02. Against LOC727775 (retired record) (GeneID 727775) #2, the entry reads G2 robust z-score -0.758. For LOC727775 (retired record) (GeneID 727775) #3, the values are G2 robust z-score 2.48. For SV2A (GeneID 9900) #1 the deposit lists G2 robust z-score -0.785. Silencing of SV2A (GeneID 9900) #2 gave: G2 robust z-score -1.05. Against SV2A (GeneID 9900) #3 the deposit lists G2 robust z-score -0.294.

Taken from above:
Result of IFT25 (GeneID 51668) #2 under “G2 robust z-score”: -0.699
Entry for LOC727775 (retired record) (GeneID 727775) #1 under “G2 robust z-score”: 2.02
